{
  "source": "PubChem BioAssay (Tox21)",
  "note": "Values joined by “and” are separate entries in the source; they are usually repeats but may differ in a detail not shown here. Equal entries are not always repeated. This list was built around the results that the source calls inconclusive (neither active nor inactive); the mix of calls is not that of the screen. Where the call is inconclusive, the potency comes from a doubtful curve fit. Active and inactive are the calls of the source. Calls follow the shape of the dose curve; as a rule, active = well fitted activation curve with a large enough effect in the repeat runs; inconclusive = weak or mixed curves; inactive = flat fitted curve, though single readings scatter. % is scaled to controls: 0 for no effect and ±100 for the full control effect; potency is read from the fitted curve at half-maximal effect. Also: nearly all actives have a fitted effect of over 45% in size.",
  "data": [
    {"experiment": "A CellTox Green Cytotoxicity Assay to monitor cytotoxicity in HEK293 cells - 24 hour (AID 1224875)", "details": "CellTox Green fluorescence; series mostly up to 76.8 µM; activity change: at the top concentration", "how_it_was_run": "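Fluorescence intensity, read at 0, 8, 16, 24, 32 and 40 h of compound treatment, reflected dye binding to DNA of dead HEK293 cells; compounds (23 nL, DMSO) were added 5 h after plating cells with reagent.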", "values": [
      {"compound": "Oc1cccc(O)c1", "Potency": "inactive"},
      {"compound": "C[Si]1(C)O[Si](C)(C)O[Si](C)(C)O1", "activity change": "inactive: -1.62%"},
      {"compound": "CCCCCCCCCCCCCCCC[N+](C)(C)CC", "Potency": "active: 43.8 µM and active: 23.9 µM"},
      {"compound": "CC(C)Nc1ccc(NC(C)C)c2c1C(=O)c1ccccc1C2=O", "Potency": "active: 25.5 µM"},
      {"compound": "CC(C)(C)C1(CCc2ccc(Cl)cc2)CO1", "note": "(configuration not stated)", "Potency": "inconclusive: 21.9 µM [activator, single point]"}
    ]},
    {"experiment": "A CellTox Green Cytotoxicity Assay to monitor cytotoxicity in HepG2 cells - 16 hour (AID 1224876)", "details": "CellTox Green fluorescence; series mostly up to 76.8 µM; cytotoxicity increase: at the top concentration", "how_it_was_run": "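Using 1536-well format, dye-containing HepG2 suspension was seeded, allowed 5 h at 37 C/5% CO2, dosed by pintool with compounds, positive and negative controls, and imaged for fluorescence across 40 h.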", "values": [
      {"compound": "C=CCON/C(CCC)=C1\\C(=O)CC(C)(C)C(C(=O)OC)=C1O", "Potency": "inconclusive: 60.9 µM [activator, single point]"},
      {"compound": "CC1(C)CO[C@@H](CC(=O)O)CN1", "cytotoxicity increase": "inactive: -10.6% [at 35.3 µM]"},
      {"compound": "CC(C)=CCC/C(C)=C/CO", "Potency": "inactive"},
      {"compound": "C[C@]12CCC(=O)C=C1CC[C@@H]1[C@@H]2C(=O)C[C@@]2(C)[C@H]1CC[C@]2(O)C(=O)CO", "Potency": "inactive"},
      {"compound": "CCOC(=O)C1=C[C@]2(CC)CCCN3CCc4c(n1c1ccccc41)[C@@H]32", "Potency": "inconclusive: 26.8 µM [activator, single point]"},
      {"compound": "CC(=O)O[C@@H]1C(=O)O[C@@H]2[C@H]1OC(=O)[C@@H]2OC(C)=O", "Potency": "inconclusive: 0.848 µM [activator, partial curve, poor fit]"},
      {"compound": "O=C(O)c1ccc(C(=O)O)cc1", "Potency": "inconclusive: 24.5 µM [activator, partial curve]"},
      {"compound": "CC(C)(O)c1coc(S(=O)(=O)NC(=O)Nc2c3c(cc4c2CCC4)CCC3)c1", "Potency": "inconclusive: 61.6 µM [activator, single point]"},
      {"compound": "Nc1nnnn1-c1ccccc1", "Potency": "inconclusive: 10.7 µM [activator, single point]"},
      {"compound": "O=C1[C@@H]2[C@H]3CC[C@H](C3)[C@@H]2C(=O)N1CCCCN1CCN(c2ncccn2)CC1", "Potency": "inconclusive: 26.8 µM [activator, single point]"},
      {"compound": "OC1CCCCCCCCCCC1", "Potency": "inconclusive: 49.5 µM [activator, partial curve] and active: 38.9 µM"},
      {"compound": "N[C@@H](CSSC[C@H](N)C(=O)O)C(=O)O", "Potency": "inconclusive: 0.107 µM [activator, single point]"},
      {"compound": "CC1=NN(c2ccc(C(=O)O)cc2)C(=O)C1", "cytotoxicity increase": "inactive: -8.99%"},
      {"compound": "CC(=O)OCC=C(C)C", "Potency": "inconclusive: 40.5 µM [activator, partial curve, poor fit]"},
      {"compound": "Oc1ccccc1", "Potency": "inconclusive: 21.9 µM [activator, single point]"},
      {"compound": "CC(=O)O[C@H]1CC[C@@]2(C)C(=CC[C@@H]3[C@@H]2CC[C@]2(C)C(C(C)=O)=CC[C@@H]32)C1", "cytotoxicity increase": "inactive: -2.48% [at 35.3 µM]"},
      {"compound": "CN(C)CCN(Cc1ccccc1)c1ccccn1", "cytotoxicity increase": "inactive: 0.22% [at 35.3 µM]"},
      {"compound": "C=C(C)C(=O)OCCOC(=O)C(=C)C", "Potency": "inactive"},
      {"compound": "O=NN(CCCl)C(=O)NCCCl", "Potency": "active: 4.77 µM"},
      {"compound": "NS(=O)(=O)c1cc2c(cc1Cl)NC(CC1CCCC1)NS2(=O)=O", "note": "(configuration not stated)", "Potency": "inconclusive: 26.8 µM [activator, single point]"},
      {"compound": "CC(=O)OCC(=O)[C@@]1(O)[C@H](OC(C)=O)C[C@H]2[C@@H]3CCC4=CC(=O)C=C[C@]4(C)[C@@]3(F)[C@@H](O)C[C@@]21C", "cytotoxicity increase": "inactive: -0.482% [at 35.3 µM]"},
      {"compound": "CCCC(=O)OC(C)(C)Cc1ccccc1", "Potency": "inconclusive: 54.9 µM [activator, partial curve, poor fit]"}
    ]}
  ]
}
